# Experimental data from PubChem BioAssay AID1487 (National Center for Advancing Translational Sciences (NCATS), 2009).
# The other results are listed elsewhere or left out. The main result of the screen is listed elsewhere. These columns were measured beside it and carry no call. The list favours compounds with an active or inconclusive main result. Potencies come from curve fits of mixed quality, noted in brackets.
# Assay: qHTS Assay for Modulators of Lamin A Splicing
# Details: HeLa LMNA splicing GFP/RFP minigene ratio, 48 h
# Summary of the method: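 S3 HeLa cells stably expressing lamin A-EGFP splicing minigene plus DsRed2, 600 cells/well, 48 h compound exposure at 37C. Laser-scanning cytometry; analysed as GFP (500-530 nm)/RFP (575-640 nm) total intensity ratio; 0.5% DMSO vehicle.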
# [1] = measured here: GFP splicing reporter channel
# [2] = measured here: RFP viability control channel
SMILES,AC50 [1],AC50 [2]
Cc1ccc(S(=O)(=O)N2CCCOC2CNC(=O)C(=O)NCCCn2ccnc2)cc1 (stereo not given),"0.00501 µM [falling, full curve, poor fit]",
CCn1cc(C(=O)OCC(=O)NCc2ccccc2Cl)c(=O)c2ccc(C)nc21,,"0.0224 µM [falling, full curve, poor fit]"
Clc1ccccc1-c1ccc2ncnc(NC3CCNCC3)c2c1,"11.2 µM [falling, partial curve, poor fit]",
O=c1c(-c2ccc(Cl)cc2)coc2c(CN3CCOCC3)c(O)ccc12,"0.0141 µM [rising, full curve, poor fit]",
CCNc1nc2nc3ccc(C)cn3c(=O)c2cc1C(=O)NCC1CCCO1 (stereo not given),"0.00316 µM [rising, full curve, poor fit]",
O=C(O)Cc1ccc(-c2ccccc2)cc1,"1.26 µM [falling, single point]","2.51 µM [falling, single point]"
CNc1nc(N2CCc3ccccc32)ncc1F,"4.47 µM [falling, partial curve]","5.01 µM [falling, partial curve, poor fit]"
Cc1ccc(-c2cc3c(n2-c2ccc(C(=O)O)cc2)CCCC3=O)cc1,,"20 µM [rising, single point]"
Cc1ccccc1C(=O)NC(=S)Nc1ccccc1N1CCCC1,"14.1 µM [rising, single point]","35.5 µM [rising, single point]"
CCOC(=O)c1cc([N+](=O)[O-])sc1NC(=O)CC,"20 µM [falling, partial curve, poor fit]","35.5 µM [falling, partial curve, poor fit]"
C=CCNC(=O)c1ccccc1NC(=O)C1COc2ccccc2O1 (stereo not given),,"3.55 µM [falling, full curve]"
CSc1nc2ccc(NC(=O)c3nn(C(C)C)c(=O)c4ccccc34)cc2s1,"0.00316 µM [falling, full curve]","0.00501 µM [falling, full curve, poor fit]"
CCN=c1scc(-c2ccc3c(c2)NC(=O)CO3)n1N=C1CCCC1,,"4.47 µM [rising, full curve]"
CC1CCn2c(nc3cc(C(=O)NCCc4ccc(Cl)cc4)ccc32)C1 (stereo not given),"14.1 µM [falling, partial curve, poor fit]",
CCOC(=O)N1CCN(C(=O)c2ccc3c(=O)n(CCC4=CCCCC4)c(=O)[nH]c3c2)CC1,"12.6 µM [rising, partial curve]","31.6 µM [rising, single point]"
CCOC(=S)SCC(=O)N1CCc2cc(OC)ccc2C1C1C(=O)CCCC1=O (stereo not given),"0.0562 µM [rising, partial curve, poor fit]","0.0794 µM [rising, full curve, poor fit]"
CC(=O)c1ccc(OCC(O)COc2ccc(C(C)=O)cc2)cc1,"8.91 µM [rising, partial curve]","11.2 µM [rising, single point]"
Cc1cc(C)nc(N/N=C/c2sccc2C)n1,,"2 µM [rising, partial curve, poor fit]"

SMILES,AC50 [1],AC50 [2]
CCOC(=O)C1=C2c3ccc4ccccc4c3CC(C)(C)N2C(=O)C1=O,"15.8 µM [rising, single point]","25.1 µM [rising, single point]"
C=CCn1c(Oc2ccccc2)nc2c1c(=O)n(C)c(=O)n2C,"1.26 µM [falling, partial curve, poor fit]",
COc1cc(Cl)c(C)cc1NC(=O)CSc1nnc(-c2ccco2)n1CC(C)C,"15.8 µM [rising, single point]","31.6 µM [rising, single point]"
COc1ccc(NC(=O)c2ccc(NC(=O)C(C)C)cc2)c([N+](=O)[O-])c1,,"0.178 µM [rising, full curve, poor fit]"
CCCCCC(=O)NNC(=O)c1c(O)c2ccccc2n(CC)c1=O,"2.51 µM [falling, single point]","2.24 µM [falling, full curve, poor fit]"
CC(C)(C)c1ccc(OCCNC(=O)Cc2ccc(F)cc2)cc1,"31.6 µM [rising, single point]","31.6 µM [rising, single point]"
CC(=O)N1N=C(c2ccc3ccccc3c2)OC1(C)C,,"25.1 µM [rising, single point]"
COc1ccccc1/C=C1\CCCC2=C1Nc1nnnn1C2c1ccccc1OC (stereo not given),"12.6 µM [rising, single point]","25.1 µM [rising, single point]"
C/C(=N\N=C(N)N)c1cc(Cl)ccc1Cl,"17.8 µM [falling, partial curve, poor fit]",
NC/C(=N\O)c1ccc(Cl)cc1Cl,,"1.78 µM [rising, partial curve]"
COc1ccccc1NS(=O)(=O)c1cc(NC(=O)CCC(=O)c2cccs2)ccc1Cl,"31.6 µM [rising, single point]","35.5 µM [rising, single point]"
Cc1ccccc1NC(=O)C1CCN(c2cc(-c3ccccc3)nc3ncnn23)CC1,,"14.1 µM [rising, partial curve]"
CCCCN(CC)C(=S)Nc1ccc2nc3n(c(=O)c2c1)CCCCC3,,"0.00794 µM [rising, full curve, poor fit]"
COC(=O)c1ccc(OCC2c3cc(OC)c(OC)cc3CCN2C(=O)COc2ccc(Cl)cc2)cc1 (stereo not given),,"0.00447 µM [falling, full curve, poor fit]"
NC(=O)c1ccc(N2CCN(c3ccc(O)cc3)CC2)c([N+](=O)[O-])c1,"10 µM [falling, partial curve, poor fit]",
CCCCNS(=O)(=O)c1ccc(NC(=O)c2cccs2)cc1,,"35.5 µM [rising, single point]"
COc1ccc(F)cc1S(=O)(=O)NCCc1csc2nc(-c3cccc(C)c3)nn12,"31.6 µM [falling, single point]","35.5 µM [falling, single point]"

# Sorted by heavy-atom count (largest number first): some entries from above
SMILES,AC50 [1],AC50 [2]
C=CCn1c(Oc2ccccc2)nc2c1c(=O)n(C)c(=O)n2C,"1.26 µM [falling, partial curve, poor fit]",
CCOC(=O)c1cc([N+](=O)[O-])sc1NC(=O)CC,"20 µM [falling, partial curve, poor fit]","35.5 µM [falling, partial curve, poor fit]"
C/C(=N\N=C(N)N)c1cc(Cl)ccc1Cl,"17.8 µM [falling, partial curve, poor fit]",
